Assay [1] has as its target T1, FLAG-tagged human hemochromatosis protein HFE (human) (UniProt Q30201).
T1 sequence: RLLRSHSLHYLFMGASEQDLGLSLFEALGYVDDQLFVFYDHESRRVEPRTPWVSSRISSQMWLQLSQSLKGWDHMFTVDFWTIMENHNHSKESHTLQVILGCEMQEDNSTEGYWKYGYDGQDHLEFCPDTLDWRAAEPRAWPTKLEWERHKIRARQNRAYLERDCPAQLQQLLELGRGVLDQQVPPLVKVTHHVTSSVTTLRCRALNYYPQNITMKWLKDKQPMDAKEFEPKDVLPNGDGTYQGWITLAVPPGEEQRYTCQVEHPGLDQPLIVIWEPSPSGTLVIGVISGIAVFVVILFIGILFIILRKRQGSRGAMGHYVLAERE
The assay is described as follows: co-IP; lysates of HeLa transfectants in PBS with 0.5% CHAPS; anti-FLAG, anti-HA or anti-β2m antibody with protein G agarose, 2 h at room temperature; western blot. A general note: A western blot detects proteins with antibodies after separation by electrophoresis.

In assay [2] the target is T2, Myc-tagged Derlin-1 (human (HeLa cDNA)) (UniProt Q9BUN8).
T2 sequence: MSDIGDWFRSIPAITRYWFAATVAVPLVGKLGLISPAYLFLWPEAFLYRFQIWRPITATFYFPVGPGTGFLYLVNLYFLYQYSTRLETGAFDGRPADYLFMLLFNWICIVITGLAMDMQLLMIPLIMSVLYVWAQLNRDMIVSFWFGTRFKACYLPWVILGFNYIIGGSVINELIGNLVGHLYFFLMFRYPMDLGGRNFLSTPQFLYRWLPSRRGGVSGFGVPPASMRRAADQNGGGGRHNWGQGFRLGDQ
As to the kind of experiment: co-IP; HeLa lines expressing wild-type US11 and FLAG-FcRn (or an FcRn mutant), transfected with Myc-tagged Derlin-1 for 48 h; lysate 0.5 mg; anti-FLAG, anti-Myc or anti-TMEM129 antibody; western blot.

The target of assay [3] is FLAG-tagged tailless FcRn (FcRn CT−/−) (human). The description is as above.
Assay [4] has as its target HA-tagged HCMV glycoprotein US11 (HCMV AD169). As to the kind of experiment: co-IP; lysates of HeLa transfectants in PBS with 0.5% CHAPS; anti-FLAG, anti-HA or anti-β2m antibody with protein G agarose, 2 h at room temperature; western blot.

These are yes or no findings as the source states them, for the method shown. Binding seen in cells or lysates may run through a third protein. For some of these results: Binding can be weak; no strength is given. For some of these results: Sequences can lack the tags named with a protein.

HA-tagged HCMV glycoprotein US11: the binding entry is recorded as “no binding” in assay [1] and “binds” in assay [2].

B1: endogenous E3 ligase TMEM129 (enzyme, UniProt A0AVI4 1-362)
chain: MDSPEVTFTLAYLVFAVCFVFTPNEFHAAGLTVQNLLSGWLGSEDAAFVPFHLRRTAATLLCHSLLPLGYYVGMCLAASEKRLHALSQAPEAWRLFLLLAVTLPSIACILIYYWSRDRWACHPLARTLALYALPQSGWQAVASSVNTEFRRIDKFATGAPGARVIVTDTWVMKVTTYRVHVAQQQDVHLTVTESRQHELSPDSNLPVQLLTIRVASTNPAVQAFDIWLNSTEYGELCEKLRAPIRRAAHVVIHQSLGDLFLETFASLVEVNPAYSVPSSQELEACIGCMQTRASVKLVKTCQEAATGECQQCYCRPMWCLTCMGKWFASRQDPLRPDTWLASRVPCPTCRARFCILDVCTVR
For the molecule B1, the binding result in assay [3] is recorded as “no binding”.

B2: FLAG-tagged human hemochromatosis protein HFE (protein, UniProt Q30201 23-348)
chain: T1 sequence
As to B2, the binding result in assay [4] is recorded as “no binding”.

For the origin of these results see publication PMC6617459.
